# The other results are listed elsewhere or left out.
# B1: Pwp1 (Candida glabrata) (protein)
# chain: MGSSHHHHHHSSGLVPRGSHMASANPISITNVCQFPDNWARTAGFQATTVRLGLTIASNTYKELLNYPGLFNFATQKATVTQPNFSISGFPFFTGLYGLTVWPINLLVELQGYFVPPESGNYTFTLQGSDDAAILFFANPSTFACGSQNDWPQPREADITVTDTLVPSRTLYLVKGVAYPIRIAYYNGSGDGKLNVSFKDPSGTTHTDWKGYVWQYSNTCSTCTYT
# Assays:
# Test in all cases: glycan array binding signal (z-score within array); higher = stronger binding
# Conditions in all cases: glycan notation: IUPAC condensed, linker removed
# [1] = target: Gal(b1-4)GlcNAc(b1-3)Gal(b1-4)GlcNAc(b1-2)[Gal(b1-4)GlcNAc(b1-3)Gal(b1-4)GlcNAc(b1-6)]Man(a1-6)[Gal(b1-4)GlcNAc(b1-3)Gal(b1-4)GlcNAc(b1-2)Man(a1-3)]Man(b1-4)GlcNAc(b1-4)GlcNAc
# How it was run: (§1)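 Glycan array data came from 3228 arrays in the Consortium for Functional Glycomics database, and only arrays with an available protein sequence were kept. Glycan names were put into IUPAC-condensed notation, and columns mapping to the same glycan were averaged. The binding signal is a within-array Z-score, averaged across arrays of one protein sequence run at different concentrations or buffers and across linkers. A negative Z-score can be read as non-binding.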
# [2] = target: Gal(b1-4)GlcNAc(b1-3)Gal(b1-4)GlcNAc(b1-2)[Gal(b1-4)GlcNAc(b1-3)Gal(b1-4)GlcNAc(b1-6)]Man(a1-6)[Gal(b1-4)GlcNAc(b1-3)Gal(b1-4)GlcNAc(b1-2)Man(a1-3)]Man(b1-4)GlcNAc(b1-4)[Fuc(a1-6)]GlcNAc
# How it was run: as §1
# [3] = target: Gal(b1-4)GlcNAc(b1-3)Gal(b1-4)GlcNAc(b1-3)Gal(b1-4)GlcNAc
# How it was run: as §1
# [4] = target: Gal(b1-4)GlcNAc(b1-3)Gal(b1-4)GlcNAc(b1-3)Gal(b1-4)GlcNAc(b1-2)Man(a1-3)[Gal(b1-4)GlcNAc(b1-3)Gal(b1-4)GlcNAc(b1-3)Gal(b1-4)GlcNAc(b1-2)Man(a1-6)]Man(b1-4)GlcNAc(b1-4)GlcNAc
# How it was run: as §1
# [5] = target: Gal(b1-4)GlcNAc(b1-3)Gal(b1-4)GlcNAc(b1-3)Gal(b1-4)GlcNAc(b1-2)Man(a1-3)[Gal(b1-4)GlcNAc(b1-3)Gal(b1-4)GlcNAc(b1-3)Gal(b1-4)GlcNAc(b1-2)Man(a1-6)]Man(b1-4)GlcNAc(b1-4)[Fuc(a1-6)]GlcNAc
# How it was run: as §1
# [6] = target: Gal(b1-4)GlcNAc(b1-3)Gal(b1-4)GlcNAc(b1-3)Gal(b1-4)GlcNAc(b1-2)[Gal(b1-4)GlcNAc(b1-3)Gal(b1-4)GlcNAc(b1-3)Gal(b1-4)GlcNAc(b1-6)]Man(a1-6)[Gal(b1-4)GlcNAc(b1-3)Gal(b1-4)GlcNAc(b1-3)Gal(b1-4)GlcNAc(b1-2)Man(a1-3)]Man(b1-4)GlcNAc(b1-4)[Fuc(a1-6)]GlcNAc
# How it was run: as §1
# [7] = target: Gal(b1-4)GlcNAc(b1-3)Gal(b1-4)GlcNAc(b1-3)Gal(b1-4)GlcNAc(b1-3)Gal(b1-4)GlcNAc(b1-2)Man(a1-3)[Gal(b1-4)GlcNAc(b1-3)Gal(b1-4)GlcNAc(b1-3)Gal(b1-4)GlcNAc(b1-3)Gal(b1-4)GlcNAc(b1-2)Man(a1-6)]Man(b1-4)GlcNAc(b1-4)GlcNAc
# How it was run: as §1
# [8] = target: Gal(b1-4)GlcNAc(b1-3)Gal(b1-4)GlcNAc(b1-3)Gal(b1-4)GlcNAc(b1-3)Gal(b1-4)GlcNAc(b1-2)Man(a1-3)[Gal(b1-4)GlcNAc(b1-3)Gal(b1-4)GlcNAc(b1-3)Gal(b1-4)GlcNAc(b1-3)Gal(b1-4)GlcNAc(b1-2)Man(a1-6)]Man(b1-4)GlcNAc(b1-4)[Fuc(a1-6)]GlcNAc
# How it was run: as §1
# [9] = target: Gal(b1-4)GlcNAc(b1-3)Gal(b1-4)GlcNAc(b1-3)Gal(b1-4)GlcNAc(b1-3)Gal(b1-4)GlcNAc(b1-2)[Gal(b1-4)GlcNAc(b1-3)Gal(b1-4)GlcNAc(b1-3)Gal(b1-4)GlcNAc(b1-3)Gal(b1-4)GlcNAc(b1-6)]Man(a1-6)[Gal(b1-4)GlcNAc(b1-3)Gal(b1-4)GlcNAc(b1-3)Gal(b1-4)GlcNAc(b1-3)Gal(b1-4)GlcNAc(b1-2)Man(a1-3)]Man(b1-4)GlcNAc(b1-4)[Fuc(a1-6)]GlcNAc
# How it was run: as §1
# [10] = target: Gal(b1-4)GlcNAc(b1-3)Gal(b1-4)GlcNAc(b1-3)Gal(b1-4)GlcNAc(b1-3)Gal(b1-4)GlcNAc(b1-3)Gal(b1-4)GlcNAc(b1-2)Man(a1-3)[Gal(b1-4)GlcNAc(b1-3)Gal(b1-4)GlcNAc(b1-3)Gal(b1-4)GlcNAc(b1-3)Gal(b1-4)GlcNAc(b1-3)Gal(b1-4)GlcNAc(b1-2)Man(a1-6)]Man(b1-4)GlcNAc(b1-4)GlcNAc
# How it was run: as §1
# [11] = target: Gal(b1-4)GlcNAc(b1-3)Gal(b1-4)GlcNAc(b1-3)Gal(b1-4)GlcNAc(b1-3)Gal(b1-4)GlcNAc(b1-3)Gal(b1-4)GlcNAc(b1-2)Man(a1-3)[Gal(b1-4)GlcNAc(b1-3)Gal(b1-4)GlcNAc(b1-3)Gal(b1-4)GlcNAc(b1-3)Gal(b1-4)GlcNAc(b1-3)Gal(b1-4)GlcNAc(b1-2)Man(a1-6)]Man(b1-4)GlcNAc(b1-4)[Fuc(a1-6)]GlcNAc
# How it was run: as §1
# [12] = target: Gal(b1-4)GlcNAc(b1-3)Gal(b1-4)GlcNAc(b1-3)Gal(b1-4)GlcNAc(b1-3)Gal(b1-4)GlcNAc(b1-3)Gal(b1-4)GlcNAc(b1-2)[Gal(b1-4)GlcNAc(b1-3)Gal(b1-4)GlcNAc(b1-3)Gal(b1-4)GlcNAc(b1-3)Gal(b1-4)GlcNAc(b1-3)Gal(b1-4)GlcNAc(b1-6)]Man(a1-6)[Gal(b1-4)GlcNAc(b1-3)Gal(b1-4)GlcNAc(b1-3)Gal(b1-4)GlcNAc(b1-3)Gal(b1-4)GlcNAc(b1-3)Gal(b1-4)GlcNAc(b1-2)Man(a1-3)]Man(b1-4)GlcNAc(b1-4)[Fuc(a1-6)]GlcNAc
# How it was run: as §1
# [13] = target: Gal(b1-4)GlcNAc(b1-3)Gal(b1-4)GlcNAc(b1-3)Gal(b1-4)GlcNAc(b1-3)Gal(b1-4)GlcNAc(b1-3)Gal(b1-4)GlcNAc(b1-3)Gal(b1-4)GlcNAc(b1-2)Man(a1-3)[Gal(b1-4)GlcNAc(b1-3)Gal(b1-4)GlcNAc(b1-3)Gal(b1-4)GlcNAc(b1-3)Gal(b1-4)GlcNAc(b1-3)Gal(b1-4)GlcNAc(b1-3)Gal(b1-4)GlcNAc(b1-2)Man(a1-6)]Man(b1-4)GlcNAc(b1-4)GlcNAc
# How it was run: as §1
# [14] = target: Gal(b1-4)GlcNAc(b1-3)Gal(b1-4)GlcNAc(b1-3)GalNAc
# How it was run: as §1
# [15] = target: Gal(b1-4)GlcNAc(b1-3)Gal(b1-4)GlcNAc(b1-3)[Gal(b1-4)GlcNAc(b1-3)Gal(b1-4)GlcNAc(b1-6)]GalNAc
# How it was run: as §1
# [16] = target: Gal(b1-4)GlcNAc(b1-3)Gal(b1-4)GlcNAc(b1-6)[Gal(b1-3)]GalNAc
# How it was run: as §1
# [17] = target: Gal(b1-4)GlcNAc(b1-3)Gal(b1-4)[Fuc(a1-3)]GlcNAc(b1-3)Gal(b1-4)[Fuc(a1-3)]GlcNAc
# How it was run: as §1
# [18] = target: Gal(b1-4)GlcNAc(b1-3)GalNAc
# How it was run: as §1
# [19] = target: Gal(b1-4)GlcNAc(b1-3)[Fuc(a1-3)GlcNAc(b1-6)]Gal(b1-4)Glc
# How it was run: as §1
# [20] = target: Gal(b1-4)GlcNAc(b1-3)[Gal(b1-4)GlcNAc(b1-6)]Gal(b1-4)GlcNAc
# How it was run: as §1
# [21] = target: Gal(b1-4)GlcNAc(b1-3)[GlcNAc(b1-6)]Gal(b1-4)GlcNAc
# How it was run: as §1
# [22] = target: Gal(b1-4)GlcNAc(b1-6)Gal(b1-4)GlcNAc
# How it was run: as §1
binder,measurement,setting,value
B1,glycan array binding signal (z-score),[1],-1.74
same,glycan array binding signal (z-score),[2],1.04
same,glycan array binding signal (z-score),[3],0.236
same,glycan array binding signal (z-score),[4],-0.538
same,glycan array binding signal (z-score),[5],-0.444
same,glycan array binding signal (z-score),[6],-0.784
same,glycan array binding signal (z-score),[7],-3.09
same,glycan array binding signal (z-score),[8],-1.93
same,glycan array binding signal (z-score),[9],-1.08
same,glycan array binding signal (z-score),[10],-2.29
same,glycan array binding signal (z-score),[11],-0.637
same,glycan array binding signal (z-score),[12],-3.11
same,glycan array binding signal (z-score),[13],-1.62
same,glycan array binding signal (z-score),[14],-1.48
same,glycan array binding signal (z-score),[15],-1.13
same,glycan array binding signal (z-score),[16],-0.936
same,glycan array binding signal (z-score),[17],0.261
same,glycan array binding signal (z-score),[18],0.712
same,glycan array binding signal (z-score),[19],-1
same,glycan array binding signal (z-score),[20],-1.22
same,glycan array binding signal (z-score),[21],0.289
same,glycan array binding signal (z-score),[22],0.602

# As a short view, some entries already given:
binder,measurement,setting,value
B1,glycan array binding signal (z-score),[3],0.236
same,glycan array binding signal (z-score),[4],-0.538
same,glycan array binding signal (z-score),[5],-0.444
same,glycan array binding signal (z-score),[6],-0.784
same,glycan array binding signal (z-score),[7],-3.09

# Source: the supplement of paper PMC8728848
